We go through 2 substances from paper PMC8483418.

Chains of the proteins cited; added tags and fusions are not shown. Lines headed by an entry give the natural chain unless they say otherwise; changes in a name come on top.
UniProt I3LEZ7: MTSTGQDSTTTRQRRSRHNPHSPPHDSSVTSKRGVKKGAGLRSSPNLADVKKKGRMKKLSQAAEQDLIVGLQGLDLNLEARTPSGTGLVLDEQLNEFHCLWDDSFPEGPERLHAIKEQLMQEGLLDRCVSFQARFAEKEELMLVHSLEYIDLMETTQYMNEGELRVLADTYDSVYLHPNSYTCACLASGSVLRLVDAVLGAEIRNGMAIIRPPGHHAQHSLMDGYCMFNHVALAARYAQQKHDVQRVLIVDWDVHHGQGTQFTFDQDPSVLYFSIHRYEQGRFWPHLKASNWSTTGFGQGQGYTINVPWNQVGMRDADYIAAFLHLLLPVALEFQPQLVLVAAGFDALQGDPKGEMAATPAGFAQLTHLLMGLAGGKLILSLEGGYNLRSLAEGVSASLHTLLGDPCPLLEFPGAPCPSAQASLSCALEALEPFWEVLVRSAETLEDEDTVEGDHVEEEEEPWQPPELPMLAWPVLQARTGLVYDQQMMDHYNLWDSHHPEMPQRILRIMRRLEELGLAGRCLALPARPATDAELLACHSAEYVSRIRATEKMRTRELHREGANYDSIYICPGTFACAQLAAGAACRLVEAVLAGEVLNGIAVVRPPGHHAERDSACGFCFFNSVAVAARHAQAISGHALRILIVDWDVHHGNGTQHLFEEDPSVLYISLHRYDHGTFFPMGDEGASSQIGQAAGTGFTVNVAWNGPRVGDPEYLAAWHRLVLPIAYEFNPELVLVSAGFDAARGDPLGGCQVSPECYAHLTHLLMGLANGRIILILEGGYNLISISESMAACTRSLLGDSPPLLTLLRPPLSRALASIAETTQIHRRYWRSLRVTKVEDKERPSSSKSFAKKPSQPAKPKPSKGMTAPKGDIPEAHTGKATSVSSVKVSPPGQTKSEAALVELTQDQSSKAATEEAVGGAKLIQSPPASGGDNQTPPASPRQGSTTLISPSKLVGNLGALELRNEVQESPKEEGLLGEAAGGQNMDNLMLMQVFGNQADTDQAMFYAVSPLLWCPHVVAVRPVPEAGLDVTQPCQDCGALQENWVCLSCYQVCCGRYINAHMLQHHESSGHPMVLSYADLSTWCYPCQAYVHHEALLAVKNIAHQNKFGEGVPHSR

Changes are numbered by the printed parent chain. These are yes or no findings as the source states them, for the method shown. Binding seen in cells or lysates may run through a third protein. For part of these data: Binding can be weak; no strength is given. Tags and fused reporters may be left off the sequences shown.

The target of experiment [1] is T1, 3×Flag-tagged porcine cGAS (K389R) (porcine) (UniProt I3LM39).
T1 sequence: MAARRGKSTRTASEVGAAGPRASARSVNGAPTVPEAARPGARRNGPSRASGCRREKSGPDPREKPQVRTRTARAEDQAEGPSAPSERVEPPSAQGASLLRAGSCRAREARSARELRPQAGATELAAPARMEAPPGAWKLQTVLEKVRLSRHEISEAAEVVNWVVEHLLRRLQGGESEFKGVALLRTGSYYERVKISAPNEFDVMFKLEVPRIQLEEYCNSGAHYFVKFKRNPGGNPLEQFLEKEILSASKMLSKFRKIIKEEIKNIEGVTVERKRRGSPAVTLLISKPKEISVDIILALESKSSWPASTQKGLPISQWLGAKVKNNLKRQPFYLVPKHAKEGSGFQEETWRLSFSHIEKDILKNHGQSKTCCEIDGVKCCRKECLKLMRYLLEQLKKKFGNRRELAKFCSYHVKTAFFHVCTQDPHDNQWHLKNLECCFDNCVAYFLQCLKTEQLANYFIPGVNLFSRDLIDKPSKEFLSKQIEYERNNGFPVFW
Briefly: co-IP; PK-15 or cGAS-/- PK-15 cells transfected with Flag-cGAS constructs, infected with PCV2 (MOI = 5), mostly with Baf, 48 h; lysis buffer 150 mM NaCl, 50 mM Tris-HCl pH 7.4, 1% Nonidet P-40, 0.5% Triton X-100; antibody overnight at 4°C, protein G/A agarose; immunoblot. Treatments also tested for cGAS with p62: siHDAC6, reconstitution with HDAC6 FL, ΔUBD or HDAC6-3M, Tubastatin A, EBSS. (In general: Immunoblotting shows a protein as a band on a membrane.)

The target of experiment [2] is T2, 3×Flag-tagged wild-type porcine cGAS (porcine) (UniProt I3LM39).
T2 sequence (chain, in PCV2-infected cells, K48-linked poly-ubiquitin at K389; phosphoserine at S278): T1 sequence with R389K
Described as above.

The target in experiment [3] is T2, 3×Flag-tagged wild-type porcine cGAS (porcine). In words: co-IP; cGAS-/- PK-15 cells transfected with HA-p62 and 3×Flag-cGAS or 3×Flag-cGAS (K389R) (S3F Fig).

Turning to “histone deacetylase 6 (HDAC6), endogenous (from UniProt I3LEZ7)”, the values for the binding result in experiment [1] and in experiment [2] were “no binding” and “binds”, respectively.

Turning to HA-p62, the binding entry in experiment [3] is listed as “binds”.
